This is an account of results in patent US9249035B2, “Method and system for treating water in order to reduce its endocrine disrupting effect by means of a living organism” (Veolia Water Solutions & Technologies Support, priority 2012, dated 2016).

The nature of this series: Elimination of endocrine disruptors and toxic agents from municipal wastewater by the method with injection of ozone. To be noted: PAC (Norit) 10 ppm, FeCl3 4-5 mg/L as Fe, ozone 1 to 2 mg/l; for Concentration in treated water: 65 samples over six months.

For `NC(=O)N1c2ccccc2C=Cc2ccccc21` [Carbamazepine], the Percentage of elimination is 99% and the “Concentration in treated water” value worked out at 0.014 µg/L.

Turning to `Cc1cc(NS(=O)(=O)c2ccc(N)cc2)no1` [Sulfamethaxole], the Percentage of elimination was found to be 88% and the “Concentration in treated water” value is 0.03 µg/L.

As to `CC(C)NCC(O)COc1ccc(CC(N)=O)cc1` (centres unmarked) [Atenolol], the Percentage of elimination is 82%.

Turning to `O=C(O)Cc1ccccc1Nc1c(Cl)cccc1Cl` [Diclofenac], the Percentage of elimination is given as 97% and the “Concentration in treated water” value was 0.034 µg/L.

For the compound `NS(=O)(=O)c1cc2c(cc1Cl)NCNS2(=O)=O` [Hydochlorothiazide], the Percentage of elimination came out at 95% and the “Concentration in treated water” value was found to be 0.146 µg/L.

Turning to `c1ccc2[nH]nnc2c1` [Benzotriazole], the Percentage of elimination amounted to 97% and the “Concentration in treated water” value came to 0.301 µg/L.
